Some of the results follow.
Compound: Cc1cc(ccc1-c1ccccc1)C(=O)N1CCCN(CC1)C(=O)CCl [compound 10]
Assay: probe-labelled cysteine peptide fold change vs DMSO (competition) (log2 fold change); higher = less target engagement (more negative = stronger competition)
Conditions: THP-1, incubation time: 4 h
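Note: competitive profiling in live THP-1 cells: cysteine peptides tagged with an iodoacetamide desthiobiotin (IA-DTB) probe, intensity after compound treatment relative to DMSO-treated cells.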

The chains behind the UniProt entries cited, without tags or fusion partners. Where a name states a change or a piece, a line headed by the entry shows the natural chain unless it says otherwise.
UniProt P09960: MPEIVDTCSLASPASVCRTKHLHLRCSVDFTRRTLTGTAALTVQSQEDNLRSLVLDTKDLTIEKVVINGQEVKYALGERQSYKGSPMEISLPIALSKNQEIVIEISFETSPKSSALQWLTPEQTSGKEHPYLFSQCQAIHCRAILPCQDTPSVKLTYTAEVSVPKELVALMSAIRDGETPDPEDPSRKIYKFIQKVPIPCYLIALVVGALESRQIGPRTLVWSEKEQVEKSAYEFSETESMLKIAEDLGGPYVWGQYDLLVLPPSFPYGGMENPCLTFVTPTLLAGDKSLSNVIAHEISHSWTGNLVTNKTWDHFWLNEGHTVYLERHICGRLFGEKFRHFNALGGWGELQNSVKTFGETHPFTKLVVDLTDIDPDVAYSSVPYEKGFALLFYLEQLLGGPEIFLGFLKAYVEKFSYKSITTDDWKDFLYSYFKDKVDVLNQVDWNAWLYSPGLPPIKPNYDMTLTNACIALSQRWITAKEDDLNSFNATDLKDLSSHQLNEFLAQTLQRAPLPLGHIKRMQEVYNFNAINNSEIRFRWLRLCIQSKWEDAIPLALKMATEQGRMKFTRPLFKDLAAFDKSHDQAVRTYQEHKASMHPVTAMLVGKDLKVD
UniProt Q9Y2L9: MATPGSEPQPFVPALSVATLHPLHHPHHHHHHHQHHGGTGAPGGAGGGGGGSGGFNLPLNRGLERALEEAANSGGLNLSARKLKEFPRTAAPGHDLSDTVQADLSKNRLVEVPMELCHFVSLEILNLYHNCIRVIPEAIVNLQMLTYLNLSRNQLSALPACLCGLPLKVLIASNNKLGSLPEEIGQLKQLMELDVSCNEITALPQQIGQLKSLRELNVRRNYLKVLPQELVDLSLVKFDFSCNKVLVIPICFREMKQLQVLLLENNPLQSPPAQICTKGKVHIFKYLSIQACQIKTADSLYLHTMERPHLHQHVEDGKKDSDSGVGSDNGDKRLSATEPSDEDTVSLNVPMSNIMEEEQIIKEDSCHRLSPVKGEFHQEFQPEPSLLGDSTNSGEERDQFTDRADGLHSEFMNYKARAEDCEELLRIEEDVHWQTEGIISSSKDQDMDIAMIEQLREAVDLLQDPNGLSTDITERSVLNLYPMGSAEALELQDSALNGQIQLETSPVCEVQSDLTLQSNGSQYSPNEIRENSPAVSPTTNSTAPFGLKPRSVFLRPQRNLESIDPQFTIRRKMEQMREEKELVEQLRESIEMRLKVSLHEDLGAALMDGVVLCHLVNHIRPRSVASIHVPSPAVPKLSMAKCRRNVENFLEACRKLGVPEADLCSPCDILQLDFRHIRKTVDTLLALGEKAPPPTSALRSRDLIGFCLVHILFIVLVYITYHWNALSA
UniProt Q9UGP4: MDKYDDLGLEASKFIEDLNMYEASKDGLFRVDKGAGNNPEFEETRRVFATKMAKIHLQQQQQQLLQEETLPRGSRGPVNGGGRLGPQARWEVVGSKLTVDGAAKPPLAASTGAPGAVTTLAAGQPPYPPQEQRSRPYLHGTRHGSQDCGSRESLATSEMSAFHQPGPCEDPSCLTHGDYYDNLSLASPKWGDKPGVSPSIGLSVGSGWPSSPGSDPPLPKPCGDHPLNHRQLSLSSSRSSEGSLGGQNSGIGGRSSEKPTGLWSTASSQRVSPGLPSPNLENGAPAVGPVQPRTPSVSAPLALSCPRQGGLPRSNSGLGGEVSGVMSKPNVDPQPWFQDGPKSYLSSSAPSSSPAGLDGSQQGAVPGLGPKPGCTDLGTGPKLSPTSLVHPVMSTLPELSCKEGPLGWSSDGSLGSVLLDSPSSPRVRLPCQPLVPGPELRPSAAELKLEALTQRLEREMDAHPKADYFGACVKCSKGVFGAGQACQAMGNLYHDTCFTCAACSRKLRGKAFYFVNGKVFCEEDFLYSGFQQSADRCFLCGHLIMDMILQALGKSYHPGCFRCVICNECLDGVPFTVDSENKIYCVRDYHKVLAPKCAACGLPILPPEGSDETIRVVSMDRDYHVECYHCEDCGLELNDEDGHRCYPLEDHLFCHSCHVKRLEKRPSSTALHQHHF
UniProt Q9Y333: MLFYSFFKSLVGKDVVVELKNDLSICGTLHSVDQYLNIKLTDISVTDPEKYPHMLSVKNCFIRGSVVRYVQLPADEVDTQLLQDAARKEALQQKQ
UniProt Q8N9N7: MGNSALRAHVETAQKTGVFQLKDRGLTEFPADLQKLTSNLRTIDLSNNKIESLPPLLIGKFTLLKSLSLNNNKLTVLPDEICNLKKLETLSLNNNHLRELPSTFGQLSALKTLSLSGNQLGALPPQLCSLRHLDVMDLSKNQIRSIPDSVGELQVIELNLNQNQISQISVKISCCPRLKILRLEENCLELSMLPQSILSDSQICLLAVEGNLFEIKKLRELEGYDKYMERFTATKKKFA
UniProt Q8IWT6: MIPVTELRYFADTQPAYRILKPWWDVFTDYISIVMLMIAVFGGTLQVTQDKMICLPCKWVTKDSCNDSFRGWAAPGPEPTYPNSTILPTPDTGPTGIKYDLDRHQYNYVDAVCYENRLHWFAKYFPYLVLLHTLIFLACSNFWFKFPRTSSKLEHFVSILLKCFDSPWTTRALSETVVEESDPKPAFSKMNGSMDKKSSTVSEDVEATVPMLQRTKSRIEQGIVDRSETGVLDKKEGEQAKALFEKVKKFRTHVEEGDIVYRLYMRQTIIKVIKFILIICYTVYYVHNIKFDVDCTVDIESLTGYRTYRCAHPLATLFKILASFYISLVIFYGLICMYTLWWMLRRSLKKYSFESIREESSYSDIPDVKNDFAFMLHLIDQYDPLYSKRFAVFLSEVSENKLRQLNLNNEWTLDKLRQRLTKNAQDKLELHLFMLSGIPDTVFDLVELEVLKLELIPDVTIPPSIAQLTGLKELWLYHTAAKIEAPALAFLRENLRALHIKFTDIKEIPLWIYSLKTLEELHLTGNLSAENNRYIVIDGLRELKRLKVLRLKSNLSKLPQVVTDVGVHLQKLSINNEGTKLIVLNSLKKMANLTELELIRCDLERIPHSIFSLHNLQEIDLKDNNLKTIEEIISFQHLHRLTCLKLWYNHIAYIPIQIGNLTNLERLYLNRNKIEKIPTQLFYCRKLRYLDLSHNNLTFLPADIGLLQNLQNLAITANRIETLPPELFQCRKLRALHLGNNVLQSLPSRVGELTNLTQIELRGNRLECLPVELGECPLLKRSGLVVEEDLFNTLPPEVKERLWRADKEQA
UniProt P33241, whole entry, looked up: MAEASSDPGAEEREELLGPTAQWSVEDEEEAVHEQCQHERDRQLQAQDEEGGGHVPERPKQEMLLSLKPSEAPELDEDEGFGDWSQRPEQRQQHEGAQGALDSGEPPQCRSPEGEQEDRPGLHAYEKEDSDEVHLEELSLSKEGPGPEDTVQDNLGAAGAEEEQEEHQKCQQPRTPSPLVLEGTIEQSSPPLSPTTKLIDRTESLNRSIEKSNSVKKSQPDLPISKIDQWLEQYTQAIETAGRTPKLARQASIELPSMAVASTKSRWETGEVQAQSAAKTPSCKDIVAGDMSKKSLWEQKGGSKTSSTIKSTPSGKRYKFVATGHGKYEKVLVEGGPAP
UniProt Q93052: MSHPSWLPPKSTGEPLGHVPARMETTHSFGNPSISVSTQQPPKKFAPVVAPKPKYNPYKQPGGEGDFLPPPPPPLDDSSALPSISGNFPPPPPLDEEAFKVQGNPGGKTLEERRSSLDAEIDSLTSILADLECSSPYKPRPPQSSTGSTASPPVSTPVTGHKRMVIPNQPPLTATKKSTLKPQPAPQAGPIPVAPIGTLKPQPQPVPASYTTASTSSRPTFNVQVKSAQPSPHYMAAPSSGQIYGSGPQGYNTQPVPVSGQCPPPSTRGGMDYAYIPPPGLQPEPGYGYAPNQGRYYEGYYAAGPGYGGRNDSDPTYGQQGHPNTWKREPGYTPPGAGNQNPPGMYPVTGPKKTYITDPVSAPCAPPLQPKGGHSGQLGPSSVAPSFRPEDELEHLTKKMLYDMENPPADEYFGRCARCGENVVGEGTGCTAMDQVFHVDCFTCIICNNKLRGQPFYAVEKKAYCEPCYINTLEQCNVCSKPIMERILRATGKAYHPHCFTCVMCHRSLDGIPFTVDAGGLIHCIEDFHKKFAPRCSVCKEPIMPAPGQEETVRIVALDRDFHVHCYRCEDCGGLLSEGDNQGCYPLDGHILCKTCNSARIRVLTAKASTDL
UniProt Q8TDW0: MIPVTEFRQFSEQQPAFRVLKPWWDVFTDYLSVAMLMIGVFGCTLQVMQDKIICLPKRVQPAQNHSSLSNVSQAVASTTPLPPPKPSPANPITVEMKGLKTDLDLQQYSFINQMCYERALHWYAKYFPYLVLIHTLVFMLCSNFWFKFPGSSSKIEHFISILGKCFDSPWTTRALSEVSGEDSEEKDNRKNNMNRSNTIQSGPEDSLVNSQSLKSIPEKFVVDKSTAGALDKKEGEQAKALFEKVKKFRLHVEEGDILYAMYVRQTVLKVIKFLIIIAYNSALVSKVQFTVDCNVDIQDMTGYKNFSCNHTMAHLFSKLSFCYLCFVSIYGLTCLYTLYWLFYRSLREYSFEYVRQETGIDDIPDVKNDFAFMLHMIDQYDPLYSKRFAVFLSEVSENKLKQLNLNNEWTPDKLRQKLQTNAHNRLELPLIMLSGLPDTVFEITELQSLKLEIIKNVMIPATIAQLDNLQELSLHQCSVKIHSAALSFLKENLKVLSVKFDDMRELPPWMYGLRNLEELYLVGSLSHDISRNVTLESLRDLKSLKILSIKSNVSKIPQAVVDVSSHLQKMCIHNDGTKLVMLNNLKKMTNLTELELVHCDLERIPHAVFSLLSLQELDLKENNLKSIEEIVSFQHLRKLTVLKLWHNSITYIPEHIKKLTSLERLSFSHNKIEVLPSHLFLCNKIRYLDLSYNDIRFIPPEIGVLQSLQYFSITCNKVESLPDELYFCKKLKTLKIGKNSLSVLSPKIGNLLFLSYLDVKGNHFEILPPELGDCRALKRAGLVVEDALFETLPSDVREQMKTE
UniProt Q9Y546: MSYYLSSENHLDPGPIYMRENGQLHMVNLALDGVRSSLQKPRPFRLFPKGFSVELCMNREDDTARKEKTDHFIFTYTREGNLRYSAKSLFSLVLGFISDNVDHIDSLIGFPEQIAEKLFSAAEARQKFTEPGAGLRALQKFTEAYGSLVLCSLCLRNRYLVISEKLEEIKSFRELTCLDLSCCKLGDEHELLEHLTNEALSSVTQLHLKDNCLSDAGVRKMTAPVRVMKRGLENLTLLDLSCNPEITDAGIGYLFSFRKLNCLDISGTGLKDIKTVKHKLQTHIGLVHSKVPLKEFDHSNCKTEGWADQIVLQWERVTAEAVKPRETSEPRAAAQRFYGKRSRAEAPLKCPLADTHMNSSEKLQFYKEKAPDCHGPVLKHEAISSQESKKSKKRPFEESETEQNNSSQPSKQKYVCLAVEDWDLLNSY
UniProt Q96CX6, whole entry, looked up: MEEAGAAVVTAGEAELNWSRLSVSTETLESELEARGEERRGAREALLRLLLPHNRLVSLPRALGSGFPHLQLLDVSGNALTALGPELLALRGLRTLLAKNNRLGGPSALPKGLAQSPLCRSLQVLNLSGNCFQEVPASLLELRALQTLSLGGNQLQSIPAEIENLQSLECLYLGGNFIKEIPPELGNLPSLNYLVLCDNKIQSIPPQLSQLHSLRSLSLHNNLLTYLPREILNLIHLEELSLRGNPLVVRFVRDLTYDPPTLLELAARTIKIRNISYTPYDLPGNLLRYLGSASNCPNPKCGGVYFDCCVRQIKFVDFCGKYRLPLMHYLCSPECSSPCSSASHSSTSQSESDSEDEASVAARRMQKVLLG
UniProt Q12907: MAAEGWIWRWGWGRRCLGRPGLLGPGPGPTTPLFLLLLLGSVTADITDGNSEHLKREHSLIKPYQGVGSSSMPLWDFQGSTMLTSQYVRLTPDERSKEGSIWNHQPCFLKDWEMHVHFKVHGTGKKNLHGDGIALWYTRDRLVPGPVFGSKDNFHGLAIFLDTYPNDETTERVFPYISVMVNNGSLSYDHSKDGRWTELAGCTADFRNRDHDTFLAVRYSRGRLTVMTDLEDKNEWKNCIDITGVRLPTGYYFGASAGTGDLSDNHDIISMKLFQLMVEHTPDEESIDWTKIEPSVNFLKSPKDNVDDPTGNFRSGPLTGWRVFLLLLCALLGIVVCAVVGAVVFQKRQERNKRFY
UniProt Q643R3: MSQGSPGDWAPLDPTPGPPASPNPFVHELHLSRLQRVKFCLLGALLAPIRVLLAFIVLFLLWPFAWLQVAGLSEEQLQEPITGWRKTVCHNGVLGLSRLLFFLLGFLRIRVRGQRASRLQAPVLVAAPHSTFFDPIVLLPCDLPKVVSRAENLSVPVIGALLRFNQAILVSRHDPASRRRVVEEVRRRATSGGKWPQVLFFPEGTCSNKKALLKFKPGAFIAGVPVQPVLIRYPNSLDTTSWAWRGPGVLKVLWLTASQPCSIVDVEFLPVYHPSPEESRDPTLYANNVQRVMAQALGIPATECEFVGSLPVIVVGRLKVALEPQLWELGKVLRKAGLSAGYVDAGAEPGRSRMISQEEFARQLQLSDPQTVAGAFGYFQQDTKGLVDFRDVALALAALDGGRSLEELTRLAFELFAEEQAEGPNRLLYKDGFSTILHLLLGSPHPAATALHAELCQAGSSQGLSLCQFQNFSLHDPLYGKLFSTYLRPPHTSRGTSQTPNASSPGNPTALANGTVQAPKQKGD

Row | Target | probe-labelled cysteine peptide fold change (10 µM) | probe-labelled cysteine peptide fold change (50 µM)
1 | LGALS1_P09382_3_ACGLVASNLNLK (UniProt P09382) | 0.0504 | 0.29
2 | LST1_O00453_90_ADYACIAENKPT (UniProt O00453) | -0.403 | -0.306
3 | LTA4H_P09960_141_EHPYLFSQCQAIHCR (UniProt P09960) | -0.0413 | 0.126
4 | LTN1_O94822_595_KKPLEDLVCK (UniProt O94822) | -0.0186 | 0.0933
5 | LRCH1_Q9Y2L9_276_QLQVLLLENNPLQSPPAQICTK (UniProt Q9Y2L9) | -0.13 | -0.0651
6 | LONP1_P36776_909_AGVTCIVLPAENKK (UniProt P36776) | -0.00288 | -0.138
7 | LPIN1_Q14693_843_LCEVVDHVFPLLK (UniProt Q14693) | -0.0162 | 0.00701
8 | LIMD1_Q9UGP4_148_HGSQDCGSR (UniProt Q9UGP4) | 0.145 | -0.749
9 | LGALS9_O00182_316_GQSFSVWILCEAHCLK (UniProt O00182) | -0.332 | 0.0163
10 | LRRK2_Q5S007_1187_FSCIPEAILNLPHLR (UniProt Q5S007) | -0.0375 | -0.109
11 | LRPPRC_P42704_722_AKYESDMVTGGYAALINLCCR (UniProt P42704) | 0.0118 | -0.476
12 | LSM2_Q9Y333_26_DVVVELKNDLSICGTLHSVDQYLNIK (UniProt Q9Y333) | 0.0504 | -0.543
13 | LRRC57_Q8N9N7_128_TLSLSGNQLGALPPQLCSLR (UniProt Q8N9N7) | 0.199 | 0.297
14 | LGALS9_O00182_312+316_GQSFSVWILCEAHCLK (UniProt O00182) | -0.00654 | -0.0266
15 | LRRC8A_Q8IWT6_768+776_GNRLECLPVELGECPLLK (UniProt Q8IWT6) | -0.106 | -0.0226
16 | LIG3_P49916_724_WCTVTK (UniProt P49916) | 0.00591 | -0.00822
17 | LSP1_P33241_109_QQHEGAQGALDSGEPPQCR (UniProt P33241) | -0.117 | -0.236
18 | LPP_Q93052_524_SLDGIPFTVDAGGLIHCIEDFHK (UniProt Q93052) | 0.00357 | 0.0957
19 | LSM14A_Q8ND56_375_SFFDNISCDDNR (UniProt Q8ND56) | -0.548 | 0.261
20 | LRRC40_Q9H9A6_23_DCGTSVPQGLLK (UniProt Q9H9A6) | -0.263 | -0.46

Row | Target | probe-labelled cysteine peptide fold change (10 µM) | probe-labelled cysteine peptide fold change (50 µM)
21 | LRPPRC_P42704_1043_DILIACR (UniProt P42704) | 0.136 | -0.0185
22 | LTA4H_P09960_26_CSVDFTR (UniProt P09960) | -0.0479 | 0.0202
23 | LRBA_P50851_2675_CSGIGDNPGSETAAPR (UniProt P50851) | -0.179 | -0.363
24 | LGALS9_O00182_312_GQSFSVWILCEAHCLK (UniProt O00182) | -0.0314 | 0.241
25 | LPP_Q93052_566_DFHVHCYR (UniProt Q93052) | 0.0696 | 0.0526
26 | LIMS1_P48059_161+164_NDPYHPDHFNCANCGK (UniProt P48059) | 0.0894 | -0.144
27 | LRRC8C_Q8TDW0_682_IEVLPSHLFLCNK (UniProt Q8TDW0) | 0.106 | 0.334
28 | LRPPRC_P42704_952_LFECDR (UniProt P42704) | 0.147 | 0.559
29 | LRRC42_Q9Y546_212_DNCLSDAGVR (UniProt Q9Y546) | -0.203 | -0.12
30 | LRPPRC_P42704_927_LQWFCDR (UniProt P42704) | -0.155 | -0.0944
31 | LPP_Q93052_499+502_AYHPHCFTCVMCHR (UniProt Q93052) | 0.182 | 0.227
32 | LRRC58_Q96CX6_197_EIPPELGNLPSLNYLVLCDNK (UniProt Q96CX6) | -0.0304 | -0.439
33 | LMAN2_Q12907_107_SKEGSIWNHQPCFLK (UniProt Q12907) | -0.133 | -0.671
34 | LPCAT2_Q7L5N7_228_SCLITFKPGAFIPGVPVQPVLLR (UniProt Q7L5N7) | 0.218 | -0.034
35 | LRPPRC_P42704_380_EDGPSVFGSFFLQHCVTMNTPVEK (UniProt P42704) | 0.0471 | 0.322
36 | LIMA1_Q9UHB6_393_ETCVECQK (UniProt Q9UHB6) | 0.179 | 0.0554
37 | LMNA_P02545_522_AQNTWGCGNSLR (UniProt P02545) | 0.00905 | -0.187
38 | LPP_Q93052_499+502+505_AYHPHCFTCVMCHR (UniProt Q93052) | 0.0502 | -0.141
39 | LPCAT4_Q643R3_304_VMAQALGIPATECEFVGSLPVIVVGR (UniProt Q643R3) | 0.439 | 0.349

Copied from the list:
Value of LSP1_P33241_109_QQHEGAQGALDSGEPPQCR (UniProt P33241) under probe-labelled cysteine peptide fold change (10 µM): -0.117
Value of LRRC8A_Q8IWT6_768+776_GNRLECLPVELGECPLLK (UniProt Q8IWT6) under probe-labelled cysteine peptide fold change (10 µM): -0.106

From the supplement of paper PMC12067093, “Discovery and optimisation of a covalent ligand for TRIM25 and its application to targeted protein ubiquitination” (Chemical Science, 2025)
